PubChem BioAssay AID602196, INSERM, 2012
Assay: 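Modifiers of cisplatin sensitivity in A549 cells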. System: human A549 lung cancer cells. Reagents: siRNA pair against human genes. Duration: 48 h transfection before cisplatin; time from cisplatin to read-out not stated. Conditions: cisplatin at a dose killing half of control-siRNA cells; exact dose and duration not given. Detection: 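Cisplatin cell death as a shift from the 50% death seen with control siRNA; siRNAs toxic or growth-blocking alone scored 0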. Reading the numbers: two-siRNA summed score (-2 to +2): higher = both siRNAs protect from cisplatin killing; -2 means both sensitise; mean protection from cisplatin (shift in death) and protection from cisplatin (shift in death), siRNA C and protection from cisplatin (shift in death), siRNA D: higher = protection from cisplatin killing. Rule for the call: 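Each siRNA scores 0 if harmful alone by LDH or WST-1, otherwise +1 if it reduces and -1 if it increases cisplatin killing; a gene is active when both siRNAs agree (sum +2 or -2)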. Calls: active = both siRNAs shift cisplatin killing the same way; inactive = no consistent shift, or siRNA harmful alone.
The deposit covers about 23,000 reagents; below is an unselected part. 455 of them (2%) were called active. 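Active includes both protection and sensitisation; some change values fall well beyond the stated -50 to +50 range.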 Not given: the amount of reagent.

gene symbol,two-siRNA summed score (-2 to +2),mean protection from cisplatin (shift in death) (%),"protection from cisplatin (shift in death), siRNA C (%)","protection from cisplatin (shift in death), siRNA D (%)",call
LOC387991,1,14.8,6.6,23,inactive
CDH7,-1,-8.6,-8.9,-8.3,inactive
DTX2,0,5.7,21,-9.5,inactive
FADS3,1,21.3,29.3,13.3,inactive
LOC140103,1,11.7,23.2,0.1,inactive
NKTR,0,-7.4,-0.5,-14.4,inactive
RFC1,-1,-22.9,-35,-10.8,inactive
LINC02694,0,10.5,15.6,5.4,inactive
RPA4,-1,-3.4,12.8,-19.6,inactive
LINC01623,0,7.6,3.2,12.1,inactive
FMO2,0,5.6,5.4,5.9,inactive
LOC387930,0,15.9,8.1,23.6,inactive
UCK2,2,12,10.1,13.9,active
TKTL1,-1,-10.1,3.1,-23.2,inactive
TINAGL1,0,4.3,-18.7,27.3,inactive
SCNN1A,0,16.1,21.7,10.4,inactive
GZF1,0,1.3,1.5,1.1,inactive
LOC390205,0,12.2,16.9,7.5,inactive
SLC6A10P,1,21.6,27.9,15.4,inactive
ATXN3L,1,6,-0.3,12.2,inactive
CNOT3,0,1.9,8.9,-5.1,inactive
SLFN13,0,-4.1,8.2,-16.4,inactive
LOC389899,1,20.1,22.3,17.9,inactive

A portion of the results above, for reference:
gene symbol,two-siRNA summed score (-2 to +2),mean protection from cisplatin (shift in death) (%),"protection from cisplatin (shift in death), siRNA C (%)","protection from cisplatin (shift in death), siRNA D (%)",call
TINAGL1,0,4.3,-18.7,27.3,inactive
SCNN1A,0,16.1,21.7,10.4,inactive
